Measurements reported in the supplement of paper PMC8728848.
This is one part of the list.

How the values were obtained:
Assay in all cases: glycan array binding signal (z-score within array); higher = stronger binding
Settings in all cases: glycan notation: IUPAC condensed, linker removed
[1] = target: Neu5Ac(a2-6)GlcNAc(b1-4)GlcNAc(b1-4)GlcNAc
Outline: (§1)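 The binding signal is a Z-score computed within each array. Data were drawn from 3228 arrays in the Consortium for Functional Glycomics database, restricted to those with a known protein sequence. Scores were averaged over arrays of the same protein sequence at different concentrations or buffers, and over linkers, and negative values can be taken as non-binding.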

Neu5Ac(a2-8)Neu5Ac = target: Neu5Ac(a2-8)Neu5Ac
Outline: as §1

[2] = target: Neu5Ac(a2-8)Neu5Ac(a2-3)Gal(b1-3)GalNAc(b1-4)[Neu5Ac(a2-3)]Gal(b1-4)Glc
Outline: as §1

[3] = target: Neu5Ac(a2-8)Neu5Ac(a2-3)Gal(b1-3)GalNAc(b1-4)[Neu5Ac(a2-8)Neu5Ac(a2-3)]Gal(b1-4)Glc
Outline: as §1

[4] = target: Neu5Ac(a2-8)Neu5Ac(a2-3)Gal(b1-4)Glc
Outline: as §1

[5] = target: Neu5Ac(a2-8)Neu5Ac(a2-3)Gal(b1-4)GlcNAc
Outline: as §1

[6] = target: Neu5Ac(a2-8)Neu5Ac(a2-3)[Gal(b1-3)GalNAc(b1-4)]Gal(b1-4)Glc
Outline: as §1

[7] = target: Neu5Ac(a2-8)Neu5Ac(a2-3)[GalNAc(b1-4)]Gal(b1-4)Glc
Outline: as §1

[8] = target: Neu5Ac(a2-8)Neu5Ac(a2-8)Neu5Ac
Outline: as §1

[9] = target: Neu5Ac(a2-8)Neu5Ac(a2-8)Neu5Ac(a2-3)Gal(b1-4)Glc
Outline: as §1

[10] = target: Neu5Ac(a2-8)Neu5Ac(a2-8)Neu5Ac(a2-3)[Gal(b1-3)GalNAc(b1-4)]Gal(b1-4)Glc
Outline: as §1

[11] = target: Neu5Ac(a2-8)Neu5Ac(a2-8)Neu5Ac(a2-3)[GalNAc(b1-4)]Gal(b1-4)Glc
Outline: as §1

[12] = target: Neu5Ac(a2-8)Neu5Ac(a2-8)Neu5Ac(a2-8)Neu5Ac(a2-3)[GalNAc(b1-4)]Gal(b1-4)Glc
Outline: as §1

[13] = target: Neu5Ac(a2-8)Neu5Gc(a2-3)Gal(b1-4)GlcNAc
Outline: as §1

[14] = target: Neu5Ac(b2-6)Gal(b1-4)GlcNAc
Outline: as §1

Neu5Ac(b2-6)GalNAc = target: Neu5Ac(b2-6)GalNAc
Outline: as §1

[15] = target: Neu5Ac9Ac(a2-3)Gal(b1-3)GlcNAc
Outline: as §1

[16] = target: Neu5Ac9Ac(a2-3)Gal(b1-4)GlcNAc
Outline: as §1

[17] = target: Neu5Ac9Ac(a2-6)Gal(b1-4)GlcNAc
Outline: as §1

[18] = target: Neu5Gc(a2-3)Gal(b1-3)GlcNAc
Outline: as §1

[19] = target: Neu5Gc(a2-3)Gal(b1-3)[Fuc(a1-4)]GlcNAc
Outline: as §1

Neu5Gc(a2-3)Gal(b1-4)Glc = target: Neu5Gc(a2-3)Gal(b1-4)Glc
Outline: as §1

[20] = target: Neu5Gc(a2-3)Gal(b1-4)GlcNAc
Outline: as §1

[21] = target: Neu5Gc(a2-3)Gal(b1-4)GlcNAc(b1-3)Gal(b1-4)GlcNAc(b1-2)Man(a1-3)[Neu5Gc(a2-3)Gal(b1-4)GlcNAc(b1-3)Gal(b1-4)GlcNAc(b1-2)Man(a1-6)]Man(b1-4)GlcNAc(b1-4)GlcNAc
Outline: as §1

[22] = target: Neu5Gc(a2-3)Gal(b1-4)[Fuc(a1-3)]GlcNAc
Outline: as §1

[23] = target: Neu5Gc(a2-6)Gal(b1-4)GlcNAc
Outline: as §1

Neu5Gc(a2-6)GalNAc = target: Neu5Gc(a2-6)GalNAc
Outline: as §1

[24] = target: Neu5Gc(a2-8)Neu5Ac(a2-3)Gal(b1-4)GlcNAc
Outline: as §1

[25] = target: Neu5Gc(a2-8)Neu5Gc(a2-3)Gal(b1-4)GlcNAc
Outline: as §1

[26] = target: Neu5Gc(a2-8)Neu5Gc(a2-3)Gal(b1-4)GlcNAc(b1-3)Gal(b1-4)GlcNAc
Outline: as §1

[27] = target: Neu5Gc(a2-8)Neu5Gc(a2-6)Gal(b1-4)GlcNAc
Outline: as §1

[28] = target: Neu5Gc(b2-6)Gal(b1-4)GlcNAc
Outline: as §1

B1: Actd5 (Actinidia), P84527 (protein)
chain: ISSCNGPCRDLNDCDGQLICIKGKCNDDPQVGTHICRGTTHSHQPGGCKPSGTLTCRGKSYPTYDCSPPVTSSTPAKLTNNDFSEGGDDGGPSECDESYHNNNERIVALSTGWYNGGSRCGKMIRITASNGKSVSAKVVDECDSRHGCDKEHAGQPPCRNNIVDGSNAVWSALGLDKNVGVVDITWSMA
[1]
  glycan array binding signal (z-score): -1.21
Neu5Ac(a2-8)Neu5Ac
  glycan array binding signal (z-score): -0.827
[2]
  glycan array binding signal (z-score): -0.272
[3]
  glycan array binding signal (z-score): 0.006
[4]
  glycan array binding signal (z-score): -0.316
[5]
  glycan array binding signal (z-score): -1.25
[6]
  glycan array binding signal (z-score): -0.214
[7]
  glycan array binding signal (z-score): -0.363
[8]
  glycan array binding signal (z-score): 0.095
[9]
  glycan array binding signal (z-score): -0.151
[10]
  glycan array binding signal (z-score): 1.71
[11]
  glycan array binding signal (z-score): -0.179
[12]
  glycan array binding signal (z-score): -0.686
[13]
  glycan array binding signal (z-score): -1.45
[14]
  glycan array binding signal (z-score): -0.819
Neu5Ac(b2-6)GalNAc
  glycan array binding signal (z-score): 0.032
[15]
  glycan array binding signal (z-score): -1.57
[16]
  glycan array binding signal (z-score): 2.81
[17]
  glycan array binding signal (z-score): -0.376
[18]
  glycan array binding signal (z-score): -0.413
[19]
  glycan array binding signal (z-score): -0.017
Neu5Gc(a2-3)Gal(b1-4)Glc
  glycan array binding signal (z-score): 0.046
[20]
  glycan array binding signal (z-score): -0.521
[21]
  glycan array binding signal (z-score): 0.689
[22]
  glycan array binding signal (z-score): 0.189
[23]
  glycan array binding signal (z-score): -0.297
Neu5Gc(a2-6)GalNAc
  glycan array binding signal (z-score): -0.357
[24]
  glycan array binding signal (z-score): 0.149
[25]
  glycan array binding signal (z-score): -0.998
[26]
  glycan array binding signal (z-score): -1.4
[27]
  glycan array binding signal (z-score): -0.989
[28]
  glycan array binding signal (z-score): -0.531
